PubChem BioAssay AID652272 – Drosophila RNAi Screening Center, 2013
The screen tested about 21,000 reagents; this is an unselected part of those that have a named target and a result. Over the whole deposit, 503 (2.4%) are marked active. 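Raw plate light values, not normalised; calls rest on replicate z-scores that were not deposited; hits include reporter decreases as well as increases.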 Not stated in the record: the amount of reagent, the time to read-out.

Purpose: 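Genes whose knock-down decreases or increases Hedgehog reporter output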 (primary screen)
System: Drosophila clone 8 (Cl8) cells
Reagents: long dsRNA against Drosophila genes
Detection: 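Firefly light from a Hedgehog-responsive ptc promoter reporter and Renilla reference light, both read on a plate reader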
Scale: firefly Hh reporter signal: higher = more ptc reporter light; Renilla reference signal: higher = more Renilla control light
Call rule: 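Hit when the z-score averaged over two replicates is under -2 or over +3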
Calls: active = hit: reporter lowered or raised; inactive = not a hit

The first 4 entries, to show the layout:
| gene knocked down | PubChem SID | firefly Hh reporter signal, replicate 1 | firefly Hh reporter signal, replicate 2 | firefly Hh reporter signal, replicate 3 | Renilla reference signal, replicate 1 | Renilla reference signal, replicate 2 | activity call |
| --- | --- | --- | --- | --- | --- | --- | --- |
| CG9896 | SID104183754 | 1.45e5 | 2.38e5 | – | 4112 | 10998 | inactive |
| CG9896 | SID104184386 | 85434 | 70454 | – | 1926 | 7265 | inactive |
| CG6295 | SID104195804 | 1.26e5 | 97542 | – | 4208 | 2794 | inactive |
| CR15280 | SID104181745 | 1.01e5 | 68633 | – | 2324 | 5618 | inactive |

Main list, repeating the preview:
| gene knocked down | PubChem SID | firefly Hh reporter signal, replicate 1 | firefly Hh reporter signal, replicate 2 | firefly Hh reporter signal, replicate 3 | Renilla reference signal, replicate 1 | Renilla reference signal, replicate 2 | activity call |
| --- | --- | --- | --- | --- | --- | --- | --- |
| CG9896 | SID104183754 | 1.45e5 | 2.38e5 | – | 4112 | 10998 | inactive |
| CG9896 | SID104184386 | 85434 | 70454 | – | 1926 | 7265 | inactive |
| CG6295 | SID104195804 | 1.26e5 | 97542 | – | 4208 | 2794 | inactive |
| CR15280 | SID104181745 | 1.01e5 | 68633 | – | 2324 | 5618 | inactive |
| Polr2M | SID104195305 | 5.79e5 | 72546 | – | 29064 | 1997 | inactive |
| CG17270 | SID104195001 | 1.47e5 | 81013 | – | 5917 | 3370 | inactive |
| Roc1a | SID104198275 | 83904 | 2.35e5 | – | 2407 | 6340 | inactive |
| mag | SID104191579 | 1.14e5 | 64579 | – | 5152 | 2854 | inactive |
| CG6652 | SID104190478 | 77831 | 58577 | – | 3008 | 2201 | inactive |
| ckn | SID104185941 | 1.03e5 | 53961 | – | 4226 | 1650 | inactive |
| armi | SID104187985 | 1.01e5 | 68088 | – | 3591 | 5635 | inactive |
| 5-HT2A | SID104191782 | 1.02e5 | 94700 | – | 3397 | 3857 | inactive |
| Rpi | SID104184375 | 96384 | 71568 | – | 2272 | 7654 | inactive |
| CG15876 | SID104188276 | 46292 | 56421 | – | 4576 | 4309 | inactive |
| boca | SID104186200 | 95341 | 58691 | – | 2240 | 4411 | inactive |
| CG15614 | SID104186359 | 84426 | 48230 | – | 2189 | 3169 | inactive |
| bs | SID104184468 | 2.65e5 | 1.32e5 | 90973 | 18793 | 3808 | active |
| Bulli | SID104190766 | 31344 | 66512 | – | 3547 | 4121 | inactive |
| pAbp | SID104187451 | 60384 | 39814 | – | 3385 | 2072 | inactive |
| Nup93-2 | SID104196013 | 85149 | 68892 | – | 3557 | 2856 | inactive |
| CG9993 | SID104184391 | 85472 | 52468 | – | 2544 | 5123 | inactive |
| Edg78E | SID104191655 | 1.55e5 | 1.10e5 | – | 5269 | 3376 | inactive |
| CG8042 | SID104189468 | 1.03e5 | 54064 | – | 4612 | 2562 | inactive |
| Srp19 | SID104191080 | 59876 | 56348 | – | 6936 | 3840 | inactive |
| CG8861 | SID104192523 | 3.48e5 | – | – | 6901 | – | inactive |
| CG8861 | SID104196241 | 89792 | 1.29e5 | – | 2582 | 3357 | inactive |
| Cyp6w1 | SID104184701 | 1.23e5 | 79699 | – | 5013 | 3194 | inactive |
| CG43322 | SID104182072 | 91813 | 47387 | – | 2372 | 4336 | inactive |
| CG10934 | SID104185809 | 96972 | 76857 | – | 5072 | 3035 | inactive |
| CG14439 | SID104197723 | 58919 | 2.67e5 | – | 2296 | 9921 | inactive |
| CG14355 | SID104194610 | 1.22e5 | 1.23e5 | – | 5680 | 5042 | inactive |
| Elp4 | SID104182791 | 53776 | 37466 | – | 1057 | 3606 | inactive |
| CG15530 | SID104194859 | 1.11e5 | 1.45e5 | – | 2993 | 3393 | inactive |
| Zir | SID104180099 | 1.36e5 | 1.03e5 | – | 5400 | 3773 | inactive |
| CG14238 | SID104194524 | 66096 | 82040 | – | 1511 | 1869 | inactive |
| Mybbp1A | SID104198580 | 91738 | 64154 | – | 2189 | 2464 | inactive |
| Grp170 | SID104198316 | 1.05e5 | 1.17e5 | – | 2729 | 3929 | inactive |
| CG1677 | SID104197908 | 74026 | 2.94e5 | – | 2532 | 13049 | inactive |
| CG43339 | SID104182258 | 56626 | 51664 | – | 2802 | 2082 | inactive |
